Experimental data: patent US20220057411A1

Target: Proteintech Recombinant PRKCG (catalog ag5910) (UniProt P05129)
Assay: Multi-Antigen Print Immunoassay (MAPIA) against recombinant PRKCG

binding	Binder
binds	PKC14 (7H1/7K3) rabbit anti-PKCg monoclonal antibody (antibody, V domains shown) VH: QSLEESGGDLVQPGASLTLTCTASGFTLTTYWICWVRQAPGKGLEWVACILTGSGSTYYASWVNGRFTISKTSSTTVTLQMTSLTAADTATYFCARYGGDATYNENLWGQGTLVTVSS VL: AQVLTQTPSSVSAAVGGTVTINCQASQSVYNNNRLSWYQQKPGQPPKRLIYGVSTLYYGVSSRFKGSGSGTQFTLTISGMQCDDAAIYYCLGGYDCASADCYAFGGGTEVVVK
binds	PKC11 (1H1/1K1) rabbit anti-PKCg monoclonal antibody (antibody, V domains shown) VH: QSVEESGGRLVTPGTPLALTCTVSGFSLNYYAMNWVRQAPVKGLEWIGVITSDTTYYASWAKGRFTISKTSTTVELQITSPTTEDTATYFCASGGSTTSPALWGQGTLVTVSS VL: AQVLTQTPSPVSAAVGSTVTINCQASQSVWSKNYLSWFQQKPGQPPKQLIYSASTLASGVPSRFSGSGSGTQFTLTISDVQCDDAATYYCLGSYDCRSADCWTFGGGTEVVVK
binds	PKC13 (5H1/5K1) rabbit anti-PKCg monoclonal antibody (antibody, V domains shown) VH: QEQLKESGGGLVTPGGTLTLTCTVSGFSLSSYAMSWVRQAPGKGLEWIGIIISGGSAYYATWAKGRFTISKTSTTVDLSITSPTTEDTATYFCARAKSGTYTGDYFTLWGQGTLVTVSS VL: AFELTQTPASVEAAVGGTVTIKCQASESIGNALAWYQQKPGQPPKLLIYRASTLESGVPSRFKGSGSGTEFTLTISDLECADAATYYCQSYVGSRSTGYNVFGGGTEVVVK

No constants are given. Whether binding was seen depends on the method and setting. Binding can be weak; no strength is given.
